# Test results published in the supplement of paper PMC12819154, “High-throughput peptide-centric local stability assay extends protein–ligand identification to membrane proteins, tissues and bacteria” (Nature Structural & Molecular Biology, 2025).
# Chains of the proteins cited; added tags and fusions are not shown. Lines headed by an entry give the natural chain unless they say otherwise; changes in a name come on top.
# UniProt Q9Y484: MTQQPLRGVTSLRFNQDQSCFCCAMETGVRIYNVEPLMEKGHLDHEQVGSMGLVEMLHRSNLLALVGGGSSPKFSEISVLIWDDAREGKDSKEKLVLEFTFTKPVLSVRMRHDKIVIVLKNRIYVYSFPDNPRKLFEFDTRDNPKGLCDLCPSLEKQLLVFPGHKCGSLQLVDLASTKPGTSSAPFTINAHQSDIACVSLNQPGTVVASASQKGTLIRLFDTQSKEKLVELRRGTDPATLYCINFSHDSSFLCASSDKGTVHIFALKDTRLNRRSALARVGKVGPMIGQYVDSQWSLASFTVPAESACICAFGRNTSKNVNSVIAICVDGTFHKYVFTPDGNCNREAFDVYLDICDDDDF
# UniProt Q9Y6K9, whole entry: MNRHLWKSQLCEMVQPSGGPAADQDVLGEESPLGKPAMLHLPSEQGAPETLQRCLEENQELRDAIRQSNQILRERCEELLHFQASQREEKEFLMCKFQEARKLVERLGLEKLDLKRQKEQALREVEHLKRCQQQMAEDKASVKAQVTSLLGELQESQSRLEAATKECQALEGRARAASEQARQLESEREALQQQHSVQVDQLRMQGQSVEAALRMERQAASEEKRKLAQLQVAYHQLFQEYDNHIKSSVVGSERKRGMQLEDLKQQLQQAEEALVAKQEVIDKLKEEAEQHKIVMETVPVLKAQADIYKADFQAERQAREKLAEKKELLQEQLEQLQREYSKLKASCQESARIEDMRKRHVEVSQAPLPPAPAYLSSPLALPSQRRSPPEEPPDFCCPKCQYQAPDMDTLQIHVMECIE
# UniProt Q9Y6I9: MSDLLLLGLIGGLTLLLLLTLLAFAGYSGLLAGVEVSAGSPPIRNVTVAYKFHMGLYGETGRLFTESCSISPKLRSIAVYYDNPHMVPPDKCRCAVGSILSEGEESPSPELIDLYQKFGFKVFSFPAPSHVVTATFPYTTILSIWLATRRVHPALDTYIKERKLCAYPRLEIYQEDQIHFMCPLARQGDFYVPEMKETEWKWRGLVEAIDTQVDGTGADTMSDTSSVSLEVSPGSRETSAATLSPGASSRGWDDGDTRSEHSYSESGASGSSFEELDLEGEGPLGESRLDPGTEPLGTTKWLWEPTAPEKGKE
# UniProt Q9Y473: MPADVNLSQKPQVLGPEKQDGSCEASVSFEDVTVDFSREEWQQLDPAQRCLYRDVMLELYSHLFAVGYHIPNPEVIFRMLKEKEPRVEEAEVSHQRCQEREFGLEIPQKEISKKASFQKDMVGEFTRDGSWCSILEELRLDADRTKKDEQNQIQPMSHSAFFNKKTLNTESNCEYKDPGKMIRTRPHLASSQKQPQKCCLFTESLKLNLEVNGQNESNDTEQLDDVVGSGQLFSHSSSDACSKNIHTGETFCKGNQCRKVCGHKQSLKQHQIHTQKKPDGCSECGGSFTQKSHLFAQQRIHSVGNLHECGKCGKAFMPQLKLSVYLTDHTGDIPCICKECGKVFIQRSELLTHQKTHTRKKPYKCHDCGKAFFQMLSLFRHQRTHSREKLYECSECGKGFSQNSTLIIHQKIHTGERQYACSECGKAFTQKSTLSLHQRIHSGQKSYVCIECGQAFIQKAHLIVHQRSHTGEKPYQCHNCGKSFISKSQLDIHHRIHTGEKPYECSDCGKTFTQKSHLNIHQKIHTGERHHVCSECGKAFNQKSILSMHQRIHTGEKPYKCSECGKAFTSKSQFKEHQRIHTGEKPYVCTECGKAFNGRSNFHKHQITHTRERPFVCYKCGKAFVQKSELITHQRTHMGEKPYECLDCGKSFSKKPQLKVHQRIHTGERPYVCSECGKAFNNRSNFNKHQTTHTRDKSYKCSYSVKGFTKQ
# UniProt Q9Y4A0: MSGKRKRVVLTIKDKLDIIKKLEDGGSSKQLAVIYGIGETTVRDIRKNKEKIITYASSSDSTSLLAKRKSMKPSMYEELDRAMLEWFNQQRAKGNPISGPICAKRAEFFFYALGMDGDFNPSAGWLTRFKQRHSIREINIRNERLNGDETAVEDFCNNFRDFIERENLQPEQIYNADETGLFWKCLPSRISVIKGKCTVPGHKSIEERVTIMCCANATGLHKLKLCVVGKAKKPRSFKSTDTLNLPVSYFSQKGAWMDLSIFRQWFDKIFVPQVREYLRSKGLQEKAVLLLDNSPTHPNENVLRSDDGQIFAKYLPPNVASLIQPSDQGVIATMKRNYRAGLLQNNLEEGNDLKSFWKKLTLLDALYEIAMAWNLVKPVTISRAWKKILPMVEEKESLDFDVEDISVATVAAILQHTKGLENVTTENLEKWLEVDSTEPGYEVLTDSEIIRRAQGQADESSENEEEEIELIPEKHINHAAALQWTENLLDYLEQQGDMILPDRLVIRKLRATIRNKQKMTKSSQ
# UniProt Q9Y580: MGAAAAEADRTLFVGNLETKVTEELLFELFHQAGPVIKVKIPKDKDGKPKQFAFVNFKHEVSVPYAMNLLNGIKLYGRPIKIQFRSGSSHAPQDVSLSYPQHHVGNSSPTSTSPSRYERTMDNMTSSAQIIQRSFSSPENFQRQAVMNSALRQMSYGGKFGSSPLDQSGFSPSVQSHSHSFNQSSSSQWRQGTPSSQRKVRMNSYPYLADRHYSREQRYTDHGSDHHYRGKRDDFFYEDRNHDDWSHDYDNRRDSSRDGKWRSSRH
# UniProt Q9Y6X9: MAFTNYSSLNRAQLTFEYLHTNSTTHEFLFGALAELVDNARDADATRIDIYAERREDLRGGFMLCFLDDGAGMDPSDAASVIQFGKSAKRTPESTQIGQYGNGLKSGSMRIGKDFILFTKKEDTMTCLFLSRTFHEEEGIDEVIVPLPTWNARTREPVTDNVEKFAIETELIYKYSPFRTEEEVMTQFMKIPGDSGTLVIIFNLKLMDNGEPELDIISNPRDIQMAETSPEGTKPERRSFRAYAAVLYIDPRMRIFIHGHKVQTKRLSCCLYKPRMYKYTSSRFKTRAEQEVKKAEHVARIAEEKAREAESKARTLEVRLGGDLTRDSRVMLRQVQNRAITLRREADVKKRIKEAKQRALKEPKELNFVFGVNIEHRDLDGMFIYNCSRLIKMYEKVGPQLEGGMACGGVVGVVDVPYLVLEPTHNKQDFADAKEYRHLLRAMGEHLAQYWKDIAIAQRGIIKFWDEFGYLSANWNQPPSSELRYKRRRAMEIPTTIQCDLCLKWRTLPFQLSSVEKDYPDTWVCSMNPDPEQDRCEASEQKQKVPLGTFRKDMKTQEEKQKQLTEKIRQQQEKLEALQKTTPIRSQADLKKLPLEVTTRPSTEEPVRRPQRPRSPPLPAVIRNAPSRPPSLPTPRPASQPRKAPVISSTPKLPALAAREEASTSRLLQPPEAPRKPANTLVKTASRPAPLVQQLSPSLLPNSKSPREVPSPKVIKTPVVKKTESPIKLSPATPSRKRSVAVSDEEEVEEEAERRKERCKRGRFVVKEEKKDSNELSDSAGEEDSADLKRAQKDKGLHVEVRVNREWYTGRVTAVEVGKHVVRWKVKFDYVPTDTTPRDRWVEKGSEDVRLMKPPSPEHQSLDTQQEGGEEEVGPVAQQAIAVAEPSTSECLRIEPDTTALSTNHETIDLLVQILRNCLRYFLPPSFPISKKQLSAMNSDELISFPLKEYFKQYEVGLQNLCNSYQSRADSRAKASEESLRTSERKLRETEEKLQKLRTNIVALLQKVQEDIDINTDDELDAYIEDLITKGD
# UniProt Q9Y6M9, whole entry: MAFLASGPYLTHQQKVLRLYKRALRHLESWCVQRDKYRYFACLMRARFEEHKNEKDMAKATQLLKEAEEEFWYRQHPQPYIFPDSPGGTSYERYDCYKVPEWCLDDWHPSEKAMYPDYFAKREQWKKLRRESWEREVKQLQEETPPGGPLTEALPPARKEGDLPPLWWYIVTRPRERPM
# UniProt Q9Y6X3: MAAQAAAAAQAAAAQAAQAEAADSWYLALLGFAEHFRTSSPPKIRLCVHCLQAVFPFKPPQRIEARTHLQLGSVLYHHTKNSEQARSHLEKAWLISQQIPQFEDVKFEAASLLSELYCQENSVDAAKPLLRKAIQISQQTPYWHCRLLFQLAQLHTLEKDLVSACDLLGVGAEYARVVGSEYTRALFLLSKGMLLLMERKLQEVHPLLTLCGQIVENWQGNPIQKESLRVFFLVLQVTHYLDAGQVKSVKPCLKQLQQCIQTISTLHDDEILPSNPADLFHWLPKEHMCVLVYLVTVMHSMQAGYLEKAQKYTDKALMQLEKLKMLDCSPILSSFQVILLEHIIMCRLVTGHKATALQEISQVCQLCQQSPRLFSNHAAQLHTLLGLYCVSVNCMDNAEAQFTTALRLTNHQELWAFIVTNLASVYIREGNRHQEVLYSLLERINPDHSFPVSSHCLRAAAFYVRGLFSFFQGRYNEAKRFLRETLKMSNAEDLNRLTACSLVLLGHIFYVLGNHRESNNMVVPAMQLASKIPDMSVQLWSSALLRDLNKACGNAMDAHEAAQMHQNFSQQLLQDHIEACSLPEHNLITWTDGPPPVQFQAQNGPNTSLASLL
# UniProt Q9Y6B7: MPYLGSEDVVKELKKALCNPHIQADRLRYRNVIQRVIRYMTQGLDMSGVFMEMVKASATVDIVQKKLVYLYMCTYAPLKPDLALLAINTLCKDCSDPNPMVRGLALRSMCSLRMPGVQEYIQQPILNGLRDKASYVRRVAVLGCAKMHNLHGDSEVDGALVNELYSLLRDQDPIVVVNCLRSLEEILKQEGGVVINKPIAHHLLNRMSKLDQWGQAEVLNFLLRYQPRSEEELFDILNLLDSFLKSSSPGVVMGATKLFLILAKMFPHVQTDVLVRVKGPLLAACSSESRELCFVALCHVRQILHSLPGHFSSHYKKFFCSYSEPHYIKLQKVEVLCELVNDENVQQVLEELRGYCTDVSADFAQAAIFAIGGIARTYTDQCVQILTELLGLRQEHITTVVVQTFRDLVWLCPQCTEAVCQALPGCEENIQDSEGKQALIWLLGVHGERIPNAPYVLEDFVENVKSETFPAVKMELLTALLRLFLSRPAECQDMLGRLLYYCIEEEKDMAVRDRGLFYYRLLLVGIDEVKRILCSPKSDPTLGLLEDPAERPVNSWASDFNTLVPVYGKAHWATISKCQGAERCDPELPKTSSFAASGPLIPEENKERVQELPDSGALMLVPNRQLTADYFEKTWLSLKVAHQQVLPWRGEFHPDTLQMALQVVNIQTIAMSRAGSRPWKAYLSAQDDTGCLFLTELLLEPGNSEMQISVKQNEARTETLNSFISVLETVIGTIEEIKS
# UniProt Q9Y5X0: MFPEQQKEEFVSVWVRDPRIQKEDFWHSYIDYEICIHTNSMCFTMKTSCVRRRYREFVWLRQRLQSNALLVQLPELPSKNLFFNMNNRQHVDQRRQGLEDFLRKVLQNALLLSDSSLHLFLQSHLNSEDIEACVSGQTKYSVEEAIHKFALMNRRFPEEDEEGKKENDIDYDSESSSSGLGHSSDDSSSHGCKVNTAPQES
# UniProt Q9Y613: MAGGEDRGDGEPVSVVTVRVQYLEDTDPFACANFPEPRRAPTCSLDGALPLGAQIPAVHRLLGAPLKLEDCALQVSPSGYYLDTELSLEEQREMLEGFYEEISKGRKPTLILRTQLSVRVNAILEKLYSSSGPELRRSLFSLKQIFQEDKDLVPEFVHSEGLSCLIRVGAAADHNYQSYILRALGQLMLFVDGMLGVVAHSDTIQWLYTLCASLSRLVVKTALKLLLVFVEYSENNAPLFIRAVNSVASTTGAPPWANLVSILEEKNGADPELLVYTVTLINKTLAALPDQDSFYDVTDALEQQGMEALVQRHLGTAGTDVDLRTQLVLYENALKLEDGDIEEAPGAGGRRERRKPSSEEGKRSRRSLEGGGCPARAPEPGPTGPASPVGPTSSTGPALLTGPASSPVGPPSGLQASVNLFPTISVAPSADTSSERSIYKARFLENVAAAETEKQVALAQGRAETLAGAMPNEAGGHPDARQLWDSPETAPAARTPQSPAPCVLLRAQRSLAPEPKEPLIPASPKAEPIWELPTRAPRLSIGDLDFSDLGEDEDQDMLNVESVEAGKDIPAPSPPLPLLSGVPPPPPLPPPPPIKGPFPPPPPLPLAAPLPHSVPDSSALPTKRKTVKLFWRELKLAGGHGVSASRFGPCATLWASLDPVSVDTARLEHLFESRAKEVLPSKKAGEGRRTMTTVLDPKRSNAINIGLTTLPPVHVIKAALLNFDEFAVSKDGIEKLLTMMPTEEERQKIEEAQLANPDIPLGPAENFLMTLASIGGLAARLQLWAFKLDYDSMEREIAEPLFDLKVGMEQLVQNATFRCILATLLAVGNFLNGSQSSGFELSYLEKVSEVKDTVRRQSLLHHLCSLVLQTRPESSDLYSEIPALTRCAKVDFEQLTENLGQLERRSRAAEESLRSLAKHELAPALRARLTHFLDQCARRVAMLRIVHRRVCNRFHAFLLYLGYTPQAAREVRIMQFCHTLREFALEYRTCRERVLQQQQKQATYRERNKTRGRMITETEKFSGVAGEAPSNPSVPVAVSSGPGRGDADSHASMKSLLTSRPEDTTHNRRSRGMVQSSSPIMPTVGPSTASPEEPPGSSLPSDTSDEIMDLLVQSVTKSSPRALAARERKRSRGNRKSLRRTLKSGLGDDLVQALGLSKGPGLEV
# The other results are listed elsewhere or left out. Most values lie at the level of the controls, where differences are scatter.
# Compound: CN[C@@H]1C[C@H]2O[C@@](C)([C@@H]1OC)n1c3ccccc3c3c4c(c5c6ccccc6n2c5c31)C(=O)NC4 [staurosporine]
# Assay: log2 fold change of tryptic peptide abundance, ligand vs vehicle (limited proteolysis) (log2 ratio); higher = more trypsin-susceptible (destabilized)
# Settings: ligand concentration: 20 uM; sample: K562 cleared lysate; digestion: 4 min, 22 C (HT-PELSA RT4min, Orbitrap Astral)
row,Target,log2 fold change
1,"WDR45 (peptide sequence: IYNVEPLMEK, peptide start residue: 31) (UniProt Q9Y484)",0.0625
2,"RABGAP1 (peptide sequence: ELDKAESEIKK, peptide start residue: 919) (UniProt Q9Y3P9)",1.4
3,"SAR1B (peptide sequence: TTLLHMLKDDR, peptide start residue: 39) (UniProt Q9Y6B6)",0.31
4,"IKBKG (peptide sequence: GMQLEDLK, peptide start residue: 257) (UniProt Q9Y6K9)",0.151
5,"TEX264 (peptide sequence: WLWEPTAPEK, peptide start residue: 301) (UniProt Q9Y6I9)",0.443
6,"UniProt Q9Y473 (peptide sequence: TLNTESNCEYKDPGK, peptide start residue: 166)",-0.162
7,"TSSC4 (peptide sequence: DIFDCLEGAAR, peptide start residue: 95) (UniProt Q9Y5U2)",0.0544
8,"SLC30A1 (peptide sequence: AENIPAVVIEIK, peptide start residue: 485) (UniProt Q9Y6M5)",-0.0629
9,"UCHL5 (peptide sequence: GAQVEEIWSLEPENFEK, peptide start residue: 29) (UniProt Q9Y5K5)",-0.808
10,"CCDC9 (peptide sequence: SVEKENVAVESEK, peptide start residue: 60) (UniProt Q9Y3X0)",-0.242
11,"UniProt Q9Y4A0 (peptide sequence: AVLLLDNSPTHPNENVLR, peptide start residue: 287)",-0.0159
12,"UniProt Q9Y3D0 (peptide sequence: EIFDLIR, peptide start residue: 45)",-0.0798
13,"UniProt Q9Y5B6 (peptide sequence: ELGDFTPHDNEPGKGR, peptide start residue: 237)",-0.229
14,"UniProt Q9Y530 (peptide sequence: NGVTDLSMPR, peptide start residue: 110)",-0.189
15,"CPQ (peptide sequence: AIINLAVYGK, peptide start residue: 49) (UniProt Q9Y646)",0.115
16,"RBM7 (peptide sequence: YTDHGSDHHYR, peptide start residue: 219) (UniProt Q9Y580)",-0.302
17,"NOP16 (peptide sequence: YMVENHGEDYK, peptide start residue: 121) (UniProt Q9Y3C1)",-0.26
18,"MORC2 (peptide sequence: VPLGTFRK, peptide start residue: 545) (UniProt Q9Y6X9)",-0.692
19,"NDUFB9 (peptide sequence: AMYPDYFAK, peptide start residue: 113) (UniProt Q9Y6M9)",-0.0786
20,"RRP15 (peptide sequence: GMDGSTNETASSR, peptide start residue: 216) (UniProt Q9Y3B9)",-0.101

row,Target,log2 fold change
1,"UniProt Q9Y6X3 (peptide sequence: HQEVLYSLLER, peptide start residue: 433)",-0.115
2,"RAD54B (peptide sequence: RSAAPSQLQGNSFK, peptide start residue: 3) (UniProt Q9Y620)",-0.567
3,"HBS1L (peptide sequence: QLLNLVVIGHVDAGK, peptide start residue: 259) (UniProt Q9Y450)",-0.519
4,"NUB1 (peptide sequence: GTGNDNYR, peptide start residue: 71) (UniProt Q9Y5A7)",-0.382
5,"N6AMT1 (peptide sequence: VHIQPVITDLVK, peptide start residue: 95) (UniProt Q9Y5N5)",0.307
6,"SNX13 (peptide sequence: LLAIMPDELK, peptide start residue: 881) (UniProt Q9Y5W8)",0.201
7,"SCIN (peptide sequence: QIPFDASK, peptide start residue: 370) (UniProt Q9Y6U3)",0.0458
8,"FLVCR1 (peptide sequence: ESVELQNGPK, peptide start residue: 34) (UniProt Q9Y5Y0)",0.277
9,"AP4B1 (peptide sequence: TSSFAASGPLIPEENKER, peptide start residue: 591) (UniProt Q9Y6B7)",-0.0823
10,"TPRKB (peptide sequence: MQLTHQLDLFPECR, peptide start residue: 1) (UniProt Q9Y3C4)",0.33
11,"SNX10 (peptide sequence: RFPEEDEEGK, peptide start residue: 155) (UniProt Q9Y5X0)",-0.00947
12,"AK6 (peptide sequence: WIEQWIK, peptide start residue: 162) (UniProt Q9Y3D8)",-0.128
13,"CSAD (peptide sequence: FFNQLFSGLDPHALAGR, peptide start residue: 89) (UniProt Q9Y600)",-0.774
14,"FHOD1 (peptide sequence: VDFEQLTENLGQLERR, peptide start residue: 890) (UniProt Q9Y613)",-0.257
15,"KIF3A (peptide sequence: LDMEEEERNK, peptide start residue: 437) (UniProt Q9Y496)",-0.678
16,"TCAF1 (peptide sequence: GRVVVTGHK, peptide start residue: 266) (UniProt Q9Y4C2)",0.353
17,"SPIN1 (peptide sequence: VSALEVLPDR, peptide start residue: 108) (UniProt Q9Y657)",0.31
18,"SUPT16H (peptide sequence: DLGFNGAPYR, peptide start residue: 803) (UniProt Q9Y5B9)",0.68
19,"PPME1 (peptide sequence: HRFAEPIGGFQCVFPGC, peptide start residue: 370) (UniProt Q9Y570)",0.654

# Rewritten with tabs: part of the list above
row	Target	log2 fold change
2	RAD54B (peptide sequence: RSAAPSQLQGNSFK, peptide start residue: 3) (UniProt Q9Y620)	-0.567
3	HBS1L (peptide sequence: QLLNLVVIGHVDAGK, peptide start residue: 259) (UniProt Q9Y450)	-0.519
